Experimental data taken from PubChem BioAssay AID1347076 (National Center for Advancing Translational Sciences (NCATS), 2019).
Screen size: about 400,000 compounds; about 13,000 (3.2%) were called active. Inconclusive results, whose numbers are uncertain, are shown with a selection of clear calls. Calls come from the whole dose curve; as a rule, active = well fitted cell-killing curve with a large enough effect; inconclusive = small, poorly fitted or top-dose-only effect, or effect the other way; inactive = flat fitted curve, though single readings scatter. Potencies beside an inconclusive call are fits to weak or partial responses and may not hold up.

assay: qHTS assay for MDR1-selective chemotherapeutics: Primary screen using the drug-selected MDR subline cells KB-V1; conditions: KB-V1 MDR cells viability, CellTiter-Glo, 72 h; series mostly up to 46.1 µM; note: nearly all actives have a fitted effect of over 60% in size
Outline: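 Drug-selected KB-V1 cells, grown in DMEM lacking phenol red with 10% FBS, receive compound titrations; after three days at 37 degrees C, surviving cell ATP is quantified by CellTiter-Glo luminescence and responses normalized and curve-fitted.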
Potency is the fitted concentration of half-maximal effect.

SMILES	Potency
COc1ccc(-c2cc(C(=O)N3CCCC(C(F)(F)F)C3)c3ccccc3n2)cc1 (stereo not given)	inactive
N#Cc1c(N)nc(N)nc1Nc1ccc(Br)cc1	active: 13 µM
COC(=O)CSC1=C(C#N)C(c2ccc(C(C)C)cc2)CC(=O)N1 (stereo not given)	inactive
Cc1nc2ccc(NC(=O)c3cccc(S(=O)(=O)N4CCOCC4)c3)cc2s1	inconclusive: 2.59 µM [cytotoxic, partial curve]
CC(C)(C)C1(C)OC(C(=O)NC2CCCCC2)C(C(=O)NC2CCCCC2)O1 (stereo not given)	inconclusive: 20.6 µM [cytotoxic, single point]
CC1Cc2ccccc2N1CC(=O)NC(=O)NC(C)(C)C (stereo not given)	inconclusive: 23.1 µM [cytotoxic, single point]
N=c1c(C(=O)NCc2ccco2)cc2c(=O)n3ccccc3nc2n1Cc1ccc(Cl)cc1	inconclusive: 9.2 µM [cytotoxic, partial curve, poor fit]
CC(C)C[C@H]1CNC(=S)N1C[C@H]1CCCN1C[C@H](CC(C)C)N1C[C@H](Cc2ccc(O)cc2)N(CC2CCCCC2)C1=S	active: 16.4 µM
C#CCNc1cc(-c2ccccc2)nc2ncnn12	inconclusive: 20.6 µM [rising, single point]
COc1ccc(OC)c(C2=NOC(C(=O)NCC3CCCO3)C2)c1 (stereo not given)	inconclusive: 9.2 µM [cytotoxic, partial curve]
CN(C)CCNC(=O)c1cccc2nc3c(ccc4ccccc43)nc12	active: 20.6 µM
Cc1cc(C)n(-c2cccc(CN3CCC(CO)(Cc4ccccc4)CC3)c2)n1	inconclusive: 25.9 µM [cytotoxic, partial curve, poor fit]
Nc1nnn(CC(=O)N/N=C/c2ccncc2)n1	inconclusive: 29.1 µM [rising, single point]
COc1cc(C(=O)OCCN2CCCCC2)ccc1O	inactive
c1ccc2cc(C3OCC4(CCCC4)CO3)ccc2c1	inactive
CCOc1ccc(CCNC(=O)c2cccc(C#N)c2)cc1OCC	inconclusive: 11.6 µM [cytotoxic, partial curve]
COc1ccc2nc(-c3ccc(Cl)cc3)cc(C(=O)O)c2c1	inactive
CC(C)c1ccc(NC(=O)Nc2nc(C(N)C3CCCCC3)cs2)cc1 (stereo not given)	inconclusive: 29.1 µM [cytotoxic, single point]
O=C1C2C3CCC(C3)C2C(=O)N1c1ccc(OS(=O)(=O)c2ccccc2)cc1 (stereo not given)	active: 9.2 µM
C[C@H]1CCC(=O)N([C@H](CN=[N+]=[N-])Cc2ccccc2)CC1	inconclusive: 23.1 µM [cytotoxic, single point]
CCOc1ccc(-n2c(C)c(C(=O)OC)c3cc(O)ccc32)cc1	inactive
CCCOCCOC(=O)c1[nH]c2c(c1C)C(=O)CC(c1cc(OC)ccc1OC)C2 (stereo not given)	active: 5.8 µM
O=C(Nc1nnc(-c2ccccc2)o1)c1ccc(Cl)cc1	inconclusive: 0.0052 µM [cytotoxic, full curve, poor fit]
COc1cc2c(cc1O)C(CSC)Cc1cc3c(cc1N(C)CC2)OCO3 (stereo not given)	inconclusive: 25.9 µM [cytotoxic, single point]

Four entries picked at random from those above:
SMILES	Potency
CC(C)C[C@H]1CNC(=S)N1C[C@H]1CCCN1C[C@H](CC(C)C)N1C[C@H](Cc2ccc(O)cc2)N(CC2CCCCC2)C1=S	active: 16.4 µM
COc1ccc2nc(-c3ccc(Cl)cc3)cc(C(=O)O)c2c1	inactive
COc1ccc(-c2cc(C(=O)N3CCCC(C(F)(F)F)C3)c3ccccc3n2)cc1 (stereo not given)	inactive
COC(=O)CSC1=C(C#N)C(c2ccc(C(C)C)cc2)CC(=O)N1 (stereo not given)	inactive

(cont.)

SMILES	Potency
COc1ccc(C2=NOC(C(=O)NCc3ccc(F)cc3)C2)cc1 (stereo not given)	active: 14.6 µM
Cc1ccc2nc(-c3cc(NC(=O)/C=C/c4ccccc4)ccc3Cl)oc2c1	inactive
O=C1CCOc2cc(OCc3ccccc3)ccc21	inconclusive: 23.1 µM [cytotoxic, single point]
COc1ccc(Cl)cc1NC(=O)CN1CCN(Cc2ccccc2)CC1	inconclusive: 7.31 µM [cytotoxic, partial curve]
CCc1cnc2ccccc2c1/C=C/c1ccc(N(C)C)cc1	inconclusive: 23.1 µM [cytotoxic, single point]
COc1ccc(N(C(=O)C(C)C)S(=O)(=O)c2cccs2)cc1	inactive
CC(=O)Nc1ccc(-c2ccnc3c2CC(C(=O)Nc2cccc(C(F)(F)F)c2)O3)cc1 (stereo not given)	active: 23.1 µM
NC(N)=NNC(=O)c1ccccc1Cl	inactive
O=C(COc1ccccc1[N+](=O)[O-])Nc1cccc(S(=O)(=O)NC2=NCCCCC2)c1	inconclusive: 18.4 µM [cytotoxic, single point]
Cc1ccc(-c2nc(N/N=C/c3ccccc3[N+](=O)[O-])c3ccccc3n2)cc1	inactive
Cc1ccccc1-c1noc(CCC(=O)Nc2cccc(C)c2C)n1	inconclusive: 0.092 µM [rising, full curve, poor fit]
CC1CCN(C(=O)CSc2nnc(-c3cccs3)o2)CC1	inconclusive: 14.6 µM [cytotoxic, partial curve]
CCN=c1sc2ccccc2n1CC(O)COc1ccccc1 (stereo not given)	inconclusive: 29.1 µM [cytotoxic, single point]
CC(C)C(C(=O)NCC1CCCO1)N(Cc1cccs1)C(=O)CNS(=O)(=O)c1ccccc1 (stereo not given)	inactive
COc1ccccc1NC(=O)CCCCCN1C(=O)c2cccc3cccc(c23)C1=O	inconclusive: 5.8 µM [cytotoxic, full curve]
CN(C)C(CNC(=O)CCNC(=O)c1ccc(Br)cc1)c1ccco1 (stereo not given)	inactive
CCCC1CCC(c2nc(-c3cccnc3)no2)CC1 (stereo not given)	inactive
COc1ccc(Cl)cc1-n1c(/C=C/c2cccc3ccccc23)nc2ccccc2c1=O	inconclusive: 29.1 µM [cytotoxic, single point]
O=C(CSc1nnc(-c2cccnc2)n1Cc1ccco1)c1ccc2ccccc2c1	active: 14.6 µM
O=C(Nc1cc(S(=O)(=O)N2CCOCC2)ccc1Cl)c1cc([N+](=O)[O-])ccc1Cl	inconclusive: 10.3 µM [cytotoxic, partial curve, poor fit]
Cc1ccc(NC(=O)c2ccc(Cl)c(S(=O)(=O)N3CCCCC3)c2)nc1	inconclusive: 20.6 µM [cytotoxic, single point]
CCOCCCNC(=O)C(Cc1ccccc1)NS(=O)(=O)c1ccc2c(c1)c(=O)n(C)c(=O)n2C (stereo not given)	inconclusive: 29.1 µM [rising, single point]
O=C(Nc1cccc(Cl)c1)c1cccc(Oc2ccc([N+](=O)[O-])cc2Cl)c1	inconclusive: 18.4 µM [cytotoxic, single point]
O=C(NC(=S)Nc1ccccc1N1CCCCC1)c1cccs1	inconclusive: 14.6 µM [cytotoxic, single point]

SMILES	Potency
NC(=O)c1ccccc1NS(=O)(=O)Cc1ccccc1	inconclusive: 18.4 µM [rising, partial curve, poor fit]
CC1=NN(C(N)=S)C(=O)C1N=Nc1cccc(C)c1 (stereo not given)	inconclusive: 18.4 µM [cytotoxic, single point]
CCC(=O)N1CCN(c2c(Cl)cccc2[N+](=O)[O-])CC1	inconclusive: 29.1 µM [cytotoxic, single point]
COc1ccc(-c2nc(CSc3nncn4c3cc3occc34)c(C)o2)cc1	inconclusive: 29.1 µM [cytotoxic, single point]
CC(=O)N1CCc2cc(S(=O)(=O)NCCCN3CCCCC3)ccc21	inconclusive: 0.0073 µM [rising, full curve, poor fit]
C[C@@H](c1ccccc1)N1C[C@H](COCc2ccccc2)Oc2cc(N3CCC[C@H]3C(N)=O)ccc2S1(=O)=O	inconclusive: 18.4 µM [cytotoxic, single point]
CCCCOC(=O)c1ccc(NC(=O)c2ccoc2C)cc1	active: 10.3 µM
CCOC(=O)N1CCN(S(=O)(=O)c2ccc(C)cc2)C1c1ccccc1 (stereo not given)	inconclusive: 23.1 µM [cytotoxic, partial curve, poor fit]
CCCCCC(=O)Nc1ccc(-c2csc(N)n2)cc1	inactive
Cn1c(C(C(=O)NCC2CCCO2)N(CCc2ccccc2)C(=O)Cn2nnc3ccccc32)nc2ccccc21 (stereo not given)	inconclusive: 5.8 µM [cytotoxic, partial curve, poor fit]
CC(=O)Nc1ccc(S(=O)(=O)Nc2cccc(-n3c(C)nc4ccccc4c3=O)c2)cc1	inconclusive: 29.1 µM [rising, single point]
CC(=O)Nc1ccc2c(c1)C(=O)c1ccccc1C2=O	inactive
Cc1cc2occ(CC(=O)N(C)CC(=O)Nc3ccccc3Cl)c2cc1C	inconclusive: 9.2 µM [cytotoxic, partial curve, poor fit]
O=C(C[C@H]1C(=O)N(CCc2ccccc2)C[C@@H]1c1ccccc1)Nc1ccccc1	inactive
Cc1ccc(S(=O)(=O)N2CCN(C(=O)CSC(=S)N3CCCC3)CC2)c(C)c1	inconclusive: 20.6 µM [cytotoxic, single point]
CCc1c(C)c2ccc(OCC(=O)N(C)C)c(C)c2oc1=O	active: 10.3 µM
Cc1nn(CC(=O)Nc2cccc(S(N)(=O)=O)c2)c(C)c1[N+](=O)[O-]	inconclusive: 13 µM [rising, partial curve, poor fit]
COCCNCC1C(Oc2ccc(Cl)cc2)C(=O)N1c1ccccc1C (stereo not given)	inconclusive: 6.51 µM [cytotoxic, partial curve]
COc1ccc(-n2nc3c(c2NC(=O)CCCl)CSC3)cc1	inactive
O=[N+]([O-])c1ccc(NN=CC2CCCCCC2)c([N+](=O)[O-])c1	inactive
Cc1ccnc(NC(=O)C2CCN(S(=O)(=O)c3cccc4nsnc34)CC2)c1	inactive
CCOC(=O)[C@H]1[C@H]2COc3ccc(Cl)cc3[C@@H]2N2C(=O)c3cc(F)c(F)cc3NC(=O)[C@@]12C	inconclusive: 11.6 µM [cytotoxic, partial curve, poor fit]
